From patent US20180015176A1 come the findings set out here.

Positions count from the first letter of the chain named. Names and notes keep the numbering of the source. No constants are given. Whether binding was seen depends on the method and setting. Some binding calls cover weakened binding; strength is not graded here.

The target in the assay is TPP-599 (HUMAN-TNFRSF12Aaa28-80-hIgG1-Fc) (human). In words: ELISA, soluble Fab on 2.5 nM biotinylated TWEAKR-Fc, anti-c-myc detection. Background: An ELISA detects its analyte on a solid surface through an enzyme-linked reagent.

B1: TPP-883 single-substitution variant S36G of CDR-L1 (soluble Fab) (Fab, V domains shown)
VH: EVQLLESGGGLVQPGGSLRLSCAASGFTFSPYPMMWVRQAPGKGLEWVSYISPSGGKTHYADSVKGRFTISRDNSKNTLYLQMNSLRAEDTAVYYCARGGDGYFDYFDYWGQGTLVTVSS
VL: DIQMTQSPATLSASVGDRVTITCRASQSISGYLNWYQQKPGKAPKLLIYAASSLQSGVPSRFSGSGSGTDFTLTISSLQPEDFATYYCQQSYSSPGITFGPGTKVEIK
On to B1, for which the binding result is on record as “binds”.

B2: TPP-883 single-substitution variant S57K of CDR-L2 (soluble Fab) (Fab, V domains shown)
VH: B1 VH
VL: B1 VL with G31S, S56K
Regarding B2, the binding entry was “binds”.

B3: TPP-883 single-substitution variant S94T of CDR-L3 (soluble Fab) (Fab, V domains shown)
VH: B1 VH
VL: B1 VL with G31S, S93T
B3: the binding result is listed as “binds”.
